From PubChem BioAssay AID256 (DTP/NCI, 2004)
The list does not hold the whole screen: it gathers tests that were run many times, whatever their T/C, doses with no T/C, and many T/C values between a quarter and a half above the control. Other doses and runs of a compound stand elsewhere. T/C is the treated group as % of the vehicle group. Some doses have a count of surviving animals in place of a T/C: the source files T/C as zero there, which appears to mark a toxic dose or a test without result, not a measured value. Some survivor counts are full or nearly so, which does not show that the dose was tolerated: the source hardly ever lists a survival T/C far under the control, and the zero likely stands for such cases as well. Counts of survivors are from the toxicity check (mostly the fifth day) where no day follows; animals may have died later. Schedule codes are those of the source, taken here to give the interval after Q, in days (D) or hours (H), and the number of doses after X. Some entries were tested several times; the values are given in rising order. For survival time, the PubChem record calls one and a half times the control and up active, and a quarter to a half above the control has no call in these data; cut-offs in other NCI protocols can differ. Some T/C values carry the count of animals alive at the toxicity check (mostly the fifth day); where none is given, no animal had died by that day.

Tested on: CD2F1 mice, L1210 leukemia ip, survival T/C
Assay: NCI In Vivo Anticancer Drug Screen. Data for tumor model L1210 Leukemia (intraperitoneal) in CD2F1 (CDF1) mice
Details: higher T/C = longer survival
Procedure, shortened: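 Compound-dosed mice with transplantable tumor versus matched vehicle controls; endpoint ratio T/C reported.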

[1] = T/C endpoint: mean survival time, dose: 200.0 mg/kg/injection, schedule: Q04DX002 (ip), vehicle: saline with Tween-80
[2] = T/C endpoint: mean survival time, dose: 400.0 mg/kg/injection, schedule: Q04DX002 (ip), vehicle: saline with Tween-80
[3] = T/C endpoint: mean survival time, dose: 200.0 mg/kg/injection, schedule: Q01DX001 (ip), vehicle: saline with Tween-80
[4] = T/C endpoint: mean survival time, dose: 400.0 mg/kg/injection, schedule: Q01DX001 (ip), vehicle: saline with Tween-80
[5] = T/C endpoint: mean survival time, dose: 400.0 mg/kg/injection, schedule: Q01DX009 (ip), vehicle: saline with Tween-80
[6] = T/C endpoint: mean survival time, dose: 50.0 mg/kg/injection, schedule: Q01DX009 (ip), vehicle: saline with Tween-80
[7] = T/C endpoint: mean survival time, dose: 100.0 mg/kg/injection, schedule: Q04DX003 (ip), vehicle: saline with Tween-80
[8] = T/C endpoint: mean survival time, dose: 200.0 mg/kg/injection, schedule: Q04DX003 (ip), vehicle: saline with Tween-80
[9] = T/C endpoint: mean survival time, dose: 200.0 mg/kg/injection, schedule: Q01DX009 (ip), vehicle: saline with Tween-80
[10] = T/C endpoint: mean survival time, dose: 200.0 mg/kg/injection, schedule: Q01DX009 (ip), vehicle: water
[11] = T/C endpoint: mean survival time, dose: 400.0 mg/kg/injection, schedule: Q04DX003 (ip), vehicle: saline with Tween-80
[12] = T/C endpoint: mean survival time, dose: 200.0 mg/kg/injection, schedule: Q01DX009 (ip), vehicle: other

Which survivor count [1] does the source give for `CCOC1CCN(CCCn2c3ccccc3c3ccccc32)CC1` here?
The survivor count was 0 of 3.

And the survivor count [2]?
The survivor count was 0 of 3.

Which results are given for `CC/C(=C/c1ccc2c(c1)OCO2)[N+](=O)[O-]`?
survivor count [3]: 0 of 6; survivor count [4]: 0 of 6

For `O=c1cc[nH]cc1[N+](=O)[O-]`, which survivor count (T/C endpoint: mean survival time, dose: 400.0 mg/kg/injection, schedule: Q04DX003 (ip), vehicle: saline sonified) is on record?
The survivor count was 3 of 6.

With `O=[N+]([O-])c1c[n+]([O-])ccc1Cl` as the molecule, how does the survivor count (T/C endpoint: mean survival time, dose: 20.0 mg/kg/injection, schedule: Q01DX001 (ip), vehicle: saline) read?
Its survivor count is 4 of 6.

What about the survivor count (T/C endpoint: mean survival time, dose: 40.0 mg/kg/injection, schedule: Q01DX001 (ip), vehicle: saline) of the same molecule?
The survivor count was 5 of 6.

And the survivor count (T/C endpoint: mean survival time, dose: 80.0 mg/kg/injection, schedule: Q01DX001 (ip), vehicle: saline)?
The survivor count was 0 of 6.

Which survivor count (T/C endpoint: mean survival time, dose: 200.0 mg/kg/injection, schedule: Q01DX001 (ip), vehicle: Klucel (hydroxypropylcellulose) (HPC)) does the source give for `N#C/C(=C(\N)c1ccccc1)c1ccccc1` here?
The survivor count was 3 of 3.

Which survivor count [4] does the source give for `CC(=O)Oc1c(Cl)cc(Cl)c(Cl)c1[N+](=O)[O-]` here?
The survivor count was 0 of 6.

Which survivor count [5] does the source give for `COc1cc(C(=O)NC(=S)Nc2ccc3ccccc3c2)cc(OC)c1OC` here?
The survivor count was 3 of 3.

Which survivor count [4] does the source give for `O=C(O)/C(=C\c1cccc([N+](=O)[O-])c1)c1ccccc1` here?
Its survivor count is 2 of 6.

What about the survivor count [5] of the same molecule?
The survivor count was 1 of 6 and 2 of 3.

Which results are given for `Cc1cc(C)c(CCl)cc1CCl`?
survivor count [6]: 0 of 6; survivor count [7]: 0 of 6; survivor count [8]: 0 of 6

With `N=C(N)c1ccc(NC(=O)c2ccc(C(=O)Nc3ccc(C(=N)N)cc3)c(N)c2)cc1` as the molecule, how does the T/C (T/C endpoint: median survival time, dose: 50.0 mg/kg/injection, schedule: Q01DX009 (ip), vehicle: saline with Tween-80) read?
Its T/C is 125 % of control.

And the survivor count (T/C endpoint: median survival time, dose: 400.0 mg/kg/injection, schedule: Q01DX009 (ip), vehicle: saline with Tween-80)?
The survivor count was 5 of 6.

How did the survivor count [6] turn out when `C1CCC2CCCN2CC1` (centres undefined) was run?
The survivor count was 3 of 6.

Which results are given for `CC(=O)OC1CCC2(C)C3=CCC4(C)C(C(C)/C=C\C(C)C(C)C)CCC4C34C=CC2(C1)C1C(=O)OC(=O)C14` (centres undefined)?
survivor count [1]: 3 of 3; survivor count [2]: 3 of 3

Which results are given for `CC1CCC2N(C1)CC1C3(O)CC4(O)C(CCC5C(=O)C(O)CCC54C)C3(O)CC(O)C1(O)C2(C)O` (centres undefined)?
survivor count (T/C endpoint: mean survival time, dose: 75.0 mg/kg/injection, schedule: Q01DX001 (ip), vehicle: saline): 0 of 6; survivor count (T/C endpoint: mean survival time, dose: 150.0 mg/kg/injection, schedule: Q01DX001 (ip), vehicle: saline): 0 of 6; survivor count (T/C endpoint: mean survival time, dose: 300.0 mg/kg/injection, schedule: Q01DX001 (ip), vehicle: saline): 0 of 6

Which T/C [9] does the source give for `O=C(NC(=S)Nc1cc(Cl)ccc1Cl)c1cccc(Br)c1` here?
Its T/C is 127 % of control.

For `OCCC1CC1=C1CC1` (centres undefined), which survivor count (T/C endpoint: mean survival time, dose: 400.0 mg/kg/injection, schedule: Q04DX003 (ip), vehicle: Klucel (hydroxypropylcellulose) (HPC)) is on record?
The survivor count was 0 of 6.

`N#Cc1cc(Cl)c(OCc2ccccc2)c(Cl)c1` was tested. Which survivor count [3] did it give?
The survivor count was 6 of 6.

How did the survivor count [10] turn out when `CCCCCCCCCCC(=O)OCC1OC2C(Oc3nc(=N)ccn32)C1OC(=O)CCCCCCCCCC` (centres undefined) was run?
The survivor count was 2 of 6.

`O=C(/C=C/C(=O)OCCCl)OCCCl` was tested. Which survivor count [11] did it give?
Its survivor count is 0 of 6.

How did the survivor count (T/C endpoint: mean survival time, dose: 200.0 mg/kg/injection, schedule: Q01DX001 (ip), vehicle: saline) turn out when `CC1CCCC(C)N1c1ccc(NC(=O)c2ccc(C(=O)Nc3ccc(N4C(C)CCCC4C)cc3)cc2)cc1` (centres undefined) was run?
Its survivor count is 4 of 4.

And the survivor count (T/C endpoint: mean survival time, dose: 400.0 mg/kg/injection, schedule: Q01DX001 (ip), vehicle: saline)?
Its survivor count is 4 of 4.

With `NCCCc1ccccc1` as the molecule, how does the survivor count (T/C endpoint: mean survival time, dose: 400.0 mg/kg/injection, schedule: Q01DX009 (ip), vehicle: saline) read?
The survivor count was 0 of 6.

For `C=C(Cl)CN(CC)CCO`, which survivor count [9] is on record?
Its survivor count is 5 of 6.

And the survivor count [5]?
The survivor count was 0 of 6.

How did the T/C (T/C endpoint: mean survival time, dose: 100.0 mg/kg/injection, schedule: Q01DX009 (ip), vehicle: other) turn out when `O=C(NC(=S)Nc1cccc(F)c1)c1cccc(Br)c1` was run?
The T/C was 93, 98, 101, 111 % of control.

What about the T/C [12] of the same molecule?
Its T/C is 98 [5 of 6 alive], 107 [4 of 6 alive], 115 % of control.

And the survivor count [12]?
Its survivor count is 1 of 3.

What about the survivor count (T/C endpoint: mean survival time, dose: 400.0 mg/kg/injection, schedule: Q01DX001 (ip), vehicle: other) of the same molecule?
Its survivor count is 0 of 6.

What about the survivor count (T/C endpoint: mean survival time, dose: 400.0 mg/kg/injection, schedule: Q01DX009 (ip), vehicle: other) of the same molecule?
Its survivor count is 0 of 3 and 1 of 6.

For `c1ccc(N=Nn2c3ccccc3c3ccccc32)cc1`, which T/C [4] is on record?
Its T/C is 126 % of control.

What does the source list for `COc1ccc(CCNC(C)Cc2ccc(OC)c(OC)c2)cc1OC` (centres undefined)?
survivor count (T/C endpoint: mean survival time, dose: 100.0 mg/kg/injection, schedule: Q01DX009 (ip), vehicle: water): 2 of 6; survivor count [10]: 0 of 6

For `NCCCCC(N)C(=O)O` (centres undefined), which survivor count (T/C endpoint: median survival time, dose: 12.5 mg/kg/injection, schedule: Q04DX002 (ip), vehicle: saline) is on record?
The survivor count was 1 of 3.

What about the survivor count (T/C endpoint: median survival time, dose: 100.0 mg/kg/injection, schedule: Q04DX002 (ip), vehicle: saline) of the same molecule?
Its survivor count is 0 of 3.

What about the survivor count (T/C endpoint: median survival time, dose: 200.0 mg/kg/injection, schedule: Q04DX002 (ip), vehicle: saline) of the same molecule?
Its survivor count is 0 of 3.

And the survivor count (T/C endpoint: median survival time, dose: 400.0 mg/kg/injection, schedule: Q04DX002 (ip), vehicle: saline)?
The survivor count was 0 of 3.

How did the survivor count [11] turn out when `COc1ccc(-c2cc(C(=O)O)c3cccc(C)c3n2)cc1` was run?
Its survivor count is 0 of 6.

`O=C1C2=Cc3ccccc3CN2Cc2ccccc21` was tested. Which survivor count (T/C endpoint: mean survival time, dose: 300.0 mg/kg/injection, schedule: Q01DX001 (ip), vehicle: other) did it give?
The survivor count was 4 of 6.

For `CN(C)Cc1c[nH]c2ncccc12`, which survivor count [7] is on record?
Its survivor count is 0 of 6.

What about the survivor count [8] of the same molecule?
Its survivor count is 0 of 6.

What about the survivor count [11] of the same molecule?
Its survivor count is 0 of 6.

How did the T/C (T/C endpoint: mean survival time, dose: 18.75 mg/kg/injection, schedule: Q01DX009 (ip), vehicle: Klucel (hydroxypropylcellulose) (HPC)) turn out when `CN(C)N=Nc1ccc(NC=O)cc1` was run?
Its T/C is 125, 127, 131 % of control.

And the survivor count (T/C endpoint: mean survival time, dose: 37.5 mg/kg/injection, schedule: Q01DX009 (ip), vehicle: Klucel (hydroxypropylcellulose) (HPC))?
The survivor count was 1 of 6.

And the survivor count (T/C endpoint: mean survival time, dose: 75.0 mg/kg/injection, schedule: Q01DX009 (ip), vehicle: Klucel (hydroxypropylcellulose) (HPC))?
The survivor count was 0 of 6.

And the survivor count (T/C endpoint: mean survival time, dose: 150.0 mg/kg/injection, schedule: Q01DX009 (ip), vehicle: Klucel (hydroxypropylcellulose) (HPC))?
The survivor count was 0 of 6.

And the survivor count (T/C endpoint: mean survival time, dose: 300.0 mg/kg/injection, schedule: Q01DX009 (ip), vehicle: Klucel (hydroxypropylcellulose) (HPC))?
The survivor count was 0 of 6.

How did the survivor count (T/C endpoint: mean survival time, dose: 64.0 mg/kg/injection, schedule: Q01DX009 (ip), vehicle: acid diluted with saline) turn out when `CCCNCCNc1ccc(NCCNCCC)c2c1C(=O)c1ccccc1C2=O` was run?
Its survivor count is 1 of 6.

Which results are given for `CCCCCCCCCCCCOP(OCC)OCCCCCCCCCCCC`?
survivor count [1]: 0 of 3; survivor count [2]: 2 of 3
